Columns and labels:
Histone deacetylase 4 = Histone deacetylase 4 (Homo sapiens, UniProt P56524); experiment: Inhibition of human recombinant N-terminal GST-tagged/C-terminal His-tagged HDAC4 expressed in baculovirus infected insect cells preincubated for 2 hrs followed by Fluor-de-Lys substrate addition measured after 30 mins by fluorescence assay; type: cell-based
Histone deacetylase 7 = target: T1, Histone deacetylase 7 (Homo sapiens, UniProt Q8WUI4); experiment: Inhibition of human recombinant N-terminal GST-tagged HDAC7 expressed in baculovirus infected insect cells preincubated for 2 hrs followed by Fluor-de-Lys substrate addition measured after 30 mins by fluorescence assay; type: cell-based
T1 sequence (Q8WUI4 whole entry): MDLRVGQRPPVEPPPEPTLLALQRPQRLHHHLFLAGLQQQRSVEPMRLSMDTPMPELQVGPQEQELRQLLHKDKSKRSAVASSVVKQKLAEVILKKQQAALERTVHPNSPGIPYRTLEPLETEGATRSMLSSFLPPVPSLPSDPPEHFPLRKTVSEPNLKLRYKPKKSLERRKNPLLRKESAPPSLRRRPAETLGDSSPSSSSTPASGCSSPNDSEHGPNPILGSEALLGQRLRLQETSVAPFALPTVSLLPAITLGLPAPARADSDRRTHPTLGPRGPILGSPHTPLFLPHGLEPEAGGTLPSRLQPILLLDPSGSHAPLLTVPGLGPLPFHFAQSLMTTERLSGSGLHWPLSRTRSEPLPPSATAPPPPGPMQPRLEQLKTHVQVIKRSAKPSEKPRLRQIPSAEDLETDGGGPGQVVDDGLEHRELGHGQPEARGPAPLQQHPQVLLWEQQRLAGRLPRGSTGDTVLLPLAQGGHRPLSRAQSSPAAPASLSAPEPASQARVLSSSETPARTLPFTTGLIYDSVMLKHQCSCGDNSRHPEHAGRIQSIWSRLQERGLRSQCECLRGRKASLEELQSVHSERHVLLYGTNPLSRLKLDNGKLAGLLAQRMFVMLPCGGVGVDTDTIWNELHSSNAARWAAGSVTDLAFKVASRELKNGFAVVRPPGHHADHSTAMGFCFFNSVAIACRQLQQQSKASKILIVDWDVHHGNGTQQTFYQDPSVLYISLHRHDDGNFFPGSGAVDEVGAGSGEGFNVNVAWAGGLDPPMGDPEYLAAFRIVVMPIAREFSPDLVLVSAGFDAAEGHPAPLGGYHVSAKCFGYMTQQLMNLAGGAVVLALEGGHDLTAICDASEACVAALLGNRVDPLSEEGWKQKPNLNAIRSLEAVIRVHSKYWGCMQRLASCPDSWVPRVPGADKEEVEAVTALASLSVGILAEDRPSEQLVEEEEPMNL

By UniProt entry, the sequences of proteins in these tests, tags left out. Where a name states a change or a piece, a line headed by the entry shows the natural chain unless it says otherwise.
UniProt P56524: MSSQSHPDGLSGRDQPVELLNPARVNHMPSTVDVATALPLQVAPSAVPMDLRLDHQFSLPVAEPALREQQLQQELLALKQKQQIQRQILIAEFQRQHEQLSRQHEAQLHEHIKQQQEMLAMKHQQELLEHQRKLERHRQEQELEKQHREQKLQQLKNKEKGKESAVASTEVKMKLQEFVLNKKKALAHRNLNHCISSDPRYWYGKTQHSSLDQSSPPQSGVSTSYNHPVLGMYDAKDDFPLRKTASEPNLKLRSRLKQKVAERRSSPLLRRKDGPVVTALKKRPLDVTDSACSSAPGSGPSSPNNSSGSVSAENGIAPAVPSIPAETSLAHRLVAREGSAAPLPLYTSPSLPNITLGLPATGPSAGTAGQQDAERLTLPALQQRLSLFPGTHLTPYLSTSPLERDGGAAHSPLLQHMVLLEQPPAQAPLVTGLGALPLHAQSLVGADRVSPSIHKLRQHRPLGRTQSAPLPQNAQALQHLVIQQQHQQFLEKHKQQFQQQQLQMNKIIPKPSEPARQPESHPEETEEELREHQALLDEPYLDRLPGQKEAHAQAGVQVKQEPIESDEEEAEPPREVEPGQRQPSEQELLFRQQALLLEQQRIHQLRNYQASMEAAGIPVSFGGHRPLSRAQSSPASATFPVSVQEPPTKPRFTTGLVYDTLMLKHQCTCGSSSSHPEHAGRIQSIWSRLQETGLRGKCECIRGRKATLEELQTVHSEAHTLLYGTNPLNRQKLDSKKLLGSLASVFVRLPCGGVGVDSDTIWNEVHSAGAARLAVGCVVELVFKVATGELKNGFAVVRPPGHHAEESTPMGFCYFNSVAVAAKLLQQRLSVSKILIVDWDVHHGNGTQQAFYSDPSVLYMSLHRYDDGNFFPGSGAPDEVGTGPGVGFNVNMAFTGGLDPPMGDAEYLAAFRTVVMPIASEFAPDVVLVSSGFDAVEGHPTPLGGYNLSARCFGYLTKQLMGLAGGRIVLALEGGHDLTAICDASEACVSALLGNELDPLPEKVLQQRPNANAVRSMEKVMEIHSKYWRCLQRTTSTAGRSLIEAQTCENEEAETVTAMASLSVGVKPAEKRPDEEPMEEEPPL
UniProt Q9UQL6: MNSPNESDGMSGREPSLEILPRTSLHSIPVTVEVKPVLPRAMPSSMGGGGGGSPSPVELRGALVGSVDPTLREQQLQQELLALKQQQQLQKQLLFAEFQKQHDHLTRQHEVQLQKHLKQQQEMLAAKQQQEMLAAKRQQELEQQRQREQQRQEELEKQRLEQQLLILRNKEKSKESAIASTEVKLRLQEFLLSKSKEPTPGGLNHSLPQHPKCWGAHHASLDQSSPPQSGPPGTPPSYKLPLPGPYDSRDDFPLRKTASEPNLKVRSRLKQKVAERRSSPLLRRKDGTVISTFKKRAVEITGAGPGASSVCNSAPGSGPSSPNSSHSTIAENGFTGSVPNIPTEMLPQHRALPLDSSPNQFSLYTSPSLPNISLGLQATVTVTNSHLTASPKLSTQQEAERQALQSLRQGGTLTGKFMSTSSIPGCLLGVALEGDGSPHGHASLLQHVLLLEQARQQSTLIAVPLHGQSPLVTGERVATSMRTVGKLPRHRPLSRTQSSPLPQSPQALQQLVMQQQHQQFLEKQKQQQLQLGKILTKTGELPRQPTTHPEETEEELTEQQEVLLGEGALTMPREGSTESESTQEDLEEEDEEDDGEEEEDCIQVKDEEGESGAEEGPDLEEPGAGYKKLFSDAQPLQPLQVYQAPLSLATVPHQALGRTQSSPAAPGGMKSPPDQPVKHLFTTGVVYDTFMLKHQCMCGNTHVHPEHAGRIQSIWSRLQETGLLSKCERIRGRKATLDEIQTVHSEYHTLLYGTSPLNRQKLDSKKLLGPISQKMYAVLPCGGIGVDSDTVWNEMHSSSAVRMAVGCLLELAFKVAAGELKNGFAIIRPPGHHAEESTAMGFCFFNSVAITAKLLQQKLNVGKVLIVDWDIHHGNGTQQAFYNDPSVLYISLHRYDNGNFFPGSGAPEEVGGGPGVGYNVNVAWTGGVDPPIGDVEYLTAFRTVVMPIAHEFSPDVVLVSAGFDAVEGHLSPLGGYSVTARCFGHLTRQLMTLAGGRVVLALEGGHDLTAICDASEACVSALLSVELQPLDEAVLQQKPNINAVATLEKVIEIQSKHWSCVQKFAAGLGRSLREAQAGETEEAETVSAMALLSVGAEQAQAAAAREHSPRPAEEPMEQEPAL

Histone deacetylase 8 = target: T2, Histone deacetylase 8 (Homo sapiens, UniProt Q9BY41); experiment: Inhibition of HDAC8 (unknown origin) preincubated for 2 hrs followed by Fluor-de-Lys substrate addition measured after 30 mins by fluorescence assay
T2 sequence (Q9BY41 whole entry): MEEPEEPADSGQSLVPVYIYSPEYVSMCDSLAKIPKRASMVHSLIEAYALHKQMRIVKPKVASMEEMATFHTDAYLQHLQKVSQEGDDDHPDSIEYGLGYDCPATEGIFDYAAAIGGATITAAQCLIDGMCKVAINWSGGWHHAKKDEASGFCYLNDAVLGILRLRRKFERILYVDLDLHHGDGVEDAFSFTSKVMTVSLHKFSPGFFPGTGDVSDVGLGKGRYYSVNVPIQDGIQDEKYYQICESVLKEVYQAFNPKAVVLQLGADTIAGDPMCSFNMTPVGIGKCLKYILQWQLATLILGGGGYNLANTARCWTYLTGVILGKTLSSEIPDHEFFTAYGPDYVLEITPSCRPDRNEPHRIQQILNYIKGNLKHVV

Histone deacetylase 5 = Histone deacetylase 5 (Homo sapiens, UniProt Q9UQL6); experiment: Inhibition of human recombinant C-terminal His-tagged HDAC5 expressed in baculovirus infected insect cells preincubated for 2 hrs followed by Fluor-de-Lys substrate addition measured after 30 mins by fluorescence assay; type: cell-based

Cc1ccc(C(=O)NCCCCCC(=O)Nc2ccccc2N)cc1
IC50 (Histone deacetylase 4): > 180 µM | IC50 (Histone deacetylase 7): > 180 µM | IC50 (Histone deacetylase 8): 10.7 µM | IC50 (Histone deacetylase 5): > 180 µM
